# Results from PubChem BioAssay AID493014 (National Center for Advancing Translational Sciences (NCATS), 2011).
# Hit rate of the full screen: of about 340,000 compounds, about 170 (0.05%) were called active. The inconclusive results got no clear call from the source; some entries with a clear call stand among them for comparison. The call rests on the fitted dose curve; in most records, active means well fitted inhibition curve with a large enough effect in the signal ratio, with a control signal flat (not every such curve was filed as active); inconclusive means small, poorly fitted or top-dose-only effect, or effect the other way, or a change in a side signal; inactive means flat fitted curve, though single readings scatter; the % refers to the signal ratio. Where the call is inconclusive, the potency comes from a doubtful curve fit.
# Assay: qHTS Assay to Find Inhibitors of Chronic Active B-Cell Receptor Signaling;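 on activity change, negative = inhibition: plate controls were basal doxycycline-induced cells for no effect and cells given 10 µM MG132 for full effect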
# Details: ABC-DLBCL IkBa-CBG/CBR reporter, luminescence ratio (green luciferase fused to IkBa over red control in TMD8 lymphoma cells), 4 h; activity change, negative = inhibition: at 46.1 µM (top of the series) unless noted
# Outline: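 TMD8 human ABC-DLBCL cells with doxycycline-inducible IκBα–green luciferase fusion and unfused red luciferase, in 0.5% FBS medium; compounds up to 46 uM, 4 h at 37C. Green/red luminescence ratio, filter-overlap corrected, fitted to concentration-response curves.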
# Potency means the concentration at half of the fitted maximal effect.
SMILES,"activity change, negative = inhibition",Potency
COc1ccc(S(=O)(=O)NCCN2CCOCC2)c2ccccc12,inconclusive: 1.24%,
CC(=O)Oc1c(I)cc(I)cc1C(=O)Nc1ccc(Cl)cc1,,"inconclusive: 20 µM [falling, partial curve]"
Cc1ccc(NC(=O)CC(C)N2CCCC2)cc1 (stereo unspecified),inconclusive: 13.1%,
CCNc1nc2c(c(=O)n(C)c(=O)n2C)n1Cc1ccc(F)cc1,inconclusive: 17.3%,
O=C(CSc1ccc2ccccc2c1)NCCc1ccc(O)c(O)c1,inactive,
Cc1ccccc1OCCCC(=O)Nc1ccc(Br)cc1,inconclusive: 10.4%,
CCOC(=O)Cc1n[nH]c(=O)c2ccccc12,,"inconclusive: 2 µM [falling, partial curve, poor fit]"
COc1ccc(/C=N/NC(=O)c2ccc(CN3c4cccc5cccc(c45)S3(=O)=O)cc2)cc1,inconclusive: -2.06%,
COc1ccc(-c2cc(C(=O)NCc3ccco3)no2)cc1OC,inconclusive: -26.9%,
Clc1ccc2nc(-c3ccccc3)cn2c1,,"inconclusive: 25.1 µM [falling, single point]"
COC(=O)Nc1nc2ccc(SC(C)C)cc2[nH]1,,"inconclusive: 4.11 µM [falling, partial curve, poor fit]"
Cc1ccc(NS(=O)(=O)c2ccc3c(c2)n(C)c(=O)n3C)c(C)c1,inconclusive: -0.483%,
COc1cc2c(cc1OC)CN(CC(=O)Nc1ccc(C#N)cc1)CC2,inconclusive: 3.72%,
O=C(COc1cc(F)ccc1[N+](=O)[O-])Nc1ccc2c(c1)OCO2,inconclusive: 0.914%,
Cc1ccc(NC(=O)c2ccc(OCc3c(C)noc3C)cc2)cc1C,inactive,
CC(C)(C)C(=O)Nc1sc2c(c1-c1nc3ccccc3[nH]1)CCCC2,inactive,
S=C(c1cn(CCOc2cccc3ccccc23)c2ccccc12)N1CCCC1,inactive,
COc1cc2ccccc2cc1C(=O)Nc1nc(C)c(C(C)=O)s1,,"inconclusive: 5.62 µM [falling, partial curve]"
CC(C)C(=O)Nc1cccc2nsnc12,inactive,
CCOc1ccc2ccc(OCC)c(/C=N/n3cnnc3)c2c1,inactive,
CCc1ccc(C(=O)Cn2ccsc2=N)cc1,inconclusive: 1.17%,
Cc1cc(/C=c2\sc3nc4ccccc4n3c2=O)c(C)n1-c1ccc(C(=O)O)cc1,inconclusive: 20.6%,
c1cc2ccc3ccc(-n4cnnn4)c4ccc(c1)c2c34,inconclusive: 7.83%,
Cc1cccc(-n2ccnc2CN2CCN(C3CCCC3)C(CCO)C2)c1 (stereo unspecified),inconclusive: 4.33%,
Cn1c2ccccc2c(=O)c2cc(C#Cc3ccccn3)ccc21,inactive,
N#Cc1c(NCCN)nc(-c2ccccc2)c2c1CCCC2,,"inconclusive: 5.17 µM [falling, partial curve]"

SMILES,"activity change, negative = inhibition",Potency
CC(C)(C)c1ccc(CCC2OCC(CN3CCOCC3)O2)cc1 (stereo unspecified),,"inconclusive: 3.98 µM [falling, partial curve, poor fit]"
O=C(COC(=O)c1cc(=O)[nH]c2ccccc12)NC1CCCCCCC1,inconclusive: -0.221%,
COc1ccc(C)cc1NC(=O)CSc1nc(=O)n(Cc2ccco2)c2c1CCC2,inconclusive: 26.8%,
COc1ccccc1NCC(=O)NC(=O)NC1CCCCC1,inconclusive: 1.97%,
Cc1ccc(-n2cc(-c3ccccc3)c3c(N4CCC(C)CC4)ncnc32)cc1Cl,inactive,
CC1=CC(C)(C)Nc2ccc(OC(=O)C(C)N3C(=O)c4ccccc4C3=O)cc21 (stereo unspecified),,"inconclusive: 23.1 µM [falling, partial curve]"
Cc1cc(=O)oc2c(C)c(OCC(=O)N3CCN(c4cccc(Cl)c4)CC3)ccc12,inactive,
CC1CCCCN1C(=O)C1COc2ccccc2O1 (stereo unspecified),inactive,
Cc1cc(C(=O)Nc2ccc(N3CCOCC3)c3nonc23)ccc1[N+](=O)[O-],inconclusive: 6.92%,
O=C(Cn1cnc2c(nnn2Cc2ccccc2F)c1=O)NCC1CCCO1 (stereo unspecified),inconclusive: 12.8%,
O=C(CN1C(=O)C2CC=CCC2C1=O)NC1CCCc2ccccc21 (stereo unspecified),,"inconclusive: 23.1 µM [rising, partial curve, poor fit]"
COc1ccccc1C1=Nn2c(COc3ccccc3)nnc2SC1,,"inconclusive: 14.1 µM [falling, partial curve, poor fit]"
CC1=C/C(=N\NC(=S)NCCc2ccccc2)CC(C)(C)C1,inconclusive: 2.59%,
COc1ccc(N=c2oc3ccccc3cc2C(=O)Nc2ccccn2)cc1OC,,"inconclusive: 22.4 µM [falling, single point]"
Cc1nn(-c2ccccc2)c(C)c1C(=O)OCC(=O)NC12CC3CC(CC(C3)C1)C2,,"inconclusive: 35.5 µM [falling, single point]"
COc1ccc(NC(=O)CSc2ccc(-c3cccs3)nn2)c(OC)c1,inconclusive: 4.1%,
Cc1c(C(=O)OCc2ccccc2)[nH]c2c1C(=O)CC(c1ccco1)C2 (stereo unspecified),inconclusive: -0.37%,
Cc1sc(C(=O)Nc2ccc3ccccc3c2)cc1CC(=O)O,,"inconclusive: 11.2 µM [falling, partial curve]"
Cc1ccc(NC(=O)c2cc(S(=O)(=O)N3CCOCC3)cs2)cc1,inconclusive: 8.83%,
Cc1nn(C(C)c2n[nH]c(=S)n2-c2cccc(Cl)c2)c(C)c1[N+](=O)[O-] (stereo unspecified),,"inconclusive: 1.64 µM [rising, full curve, poor fit]"
COc1ccc([C@]23Cc4ccccc4C(O2)C2=C(CC(C)(C)CC2=O)O3)cc1,,"inconclusive: 5.62 µM [rising, single point]"
CN1C(=O)c2ccccc2Sc2ccc(NC(=O)Cc3ccc(Cl)cc3)cc21,inconclusive: 24.9%,
O=C(Oc1ccc(F)cc1C(=O)/C=C/c1cccs1)c1cccc([N+](=O)[O-])c1,,"inconclusive: 2.51 µM [falling, full curve, poor fit]"
COc1ccc(-c2csc(/N=C/N(C)C)n2)cc1OC,inconclusive: 2.35%,
O=C(Nc1ccccc1)OC1CCC2CC1CCC2OC(=O)Nc1ccccc1 (stereo unspecified),inconclusive: 5.17%,

# Two of the compounds above, with tabs.
SMILES	activity change, negative = inhibition	Potency
Cc1cc(C(=O)Nc2ccc(N3CCOCC3)c3nonc23)ccc1[N+](=O)[O-]	inconclusive: 6.92%	
O=C(Cn1cnc2c(nnn2Cc2ccccc2F)c1=O)NCC1CCCO1 (stereo unspecified)	inconclusive: 12.8%	
